Assay [1] addresses HA-L_(1-505) (amino terminus of the Ebola virus RNA-dependent RNA polymerase L) (Ebola virus (EBOV)) (UniProt Q05318). The assay can be described thus: co-IP.
For assay [2], the target named is FLAG-VP35-WT (Ebola virus virion protein 35) (Ebola virus (EBOV)) (UniProt Q05127). The experiment in a line: co-IP.

Results are given in words; binding and its absence hold for the method and conditions named. In cells and extracts the contact can be indirect. Some binding calls cover weakened binding; strength is not graded here.

With “FLAG-VP35-WT (Ebola virus virion protein 35) (from UniProt Q05127 1-340)”, the binding result in assay [1] was “binds”.
As to “HA-VP35-WT (Ebola virus virion protein 35) (from UniProt Q05127 1-340)”, in assay [2], the binding result is given as “binds”.

These data come from article doi:10.1101/726935.
